According to patent publication US20030216297A1, “Pharmaceutical composition” (SANKYO COMPANY, LIMITED, priority 2002, published 2003):

Experiment: Immunological detection rate (OCIF by ELISA divided by protein by Lowry's method)
Details: OCIF by ELISA (OI-19 / POD-OI-4) divided by protein by Lowry's method

Substance	The immunological detection rate of OCIF/DS complex
Prep. 7: OCIF/DS5 complex: DS5 130 mg/ml, OCIF 6.5 mg/ml, 4 °C, pH 10.5, 144 h	0.74
Prep. 27: OCIF/DS5 complex: DS5 150 mg/ml, OCIF 5 mg/ml, 4 °C, pH 10.5, 144 h	1.04
Prep. 8: OCIF/DS5 complex: DS5 130 mg/ml, OCIF 6.5 mg/ml, 4 °C, pH 10.5, 288 h	0.88
Prep. 24: OCIF/DS5 complex: DS5 150 mg/ml, OCIF 5 mg/ml, 25 °C, pH 10, 24 h	1.02
Prep. 6: OCIF/DS5 complex: DS5 130 mg/ml, OCIF 6.5 mg/ml, 4 °C, pH 10.5, 48 h	1.07
OCIF: recombinant dimeric human osteoclastogenesis inhibitory factor, molecular weight about 120000, non-complexed	1.06
Prep. 25: OCIF/DS5 complex: DS5 130 mg/ml, OCIF 6.5 mg/ml, 4 °C, pH 10.5, 24 h	0.87
Prep. 22: OCIF/DS5 complex: DS5 150 mg/ml, OCIF 5 mg/ml, 7 °C, pH 10.5, 168 h	1.06
